Assay results published in PubChem BioAssay AID2685 (National Center for Advancing Translational Sciences (NCATS), 2010).
The list shows a part of the results. Shown are side measurements of this screen, not its main read-out; they come without a call. The list favours compounds with an active or inconclusive main result. Potencies come from curve fits of mixed quality, noted in brackets.

Test: qHTS Assay for Lipid Storage Modulators in Drosophila S3 Cells;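 as to cell number change: cells counted by Cell Tracker Red CMTPX staining in the red channel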
Details: BODIPY lipid droplet fluorescence, 18-24 h; for cell number change: measured here: cell count max response, cells fed with added oleic acid
Method in brief: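 Drosophila S3 cells got compounds at several concentrations plus oleic acid (400 uM solution). Laser-scanning cytometry with 488 nm excitation read lipid droplets at 500-530 nm and cells at 575-640 nm. Percent activity was relative to 20 uM Triacsin C.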

[1] = measured here: lipid fluorescence (Fed channel) AC50, cells fed with added oleic acid
[2] = measured here: cell number channel AC50, cells fed with added oleic acid

Row | SMILES | cell number change | AC50 [1] | AC50 [2]
1 | CCn1c(CNC(=O)c2cccs2)nnc1SCC(=O)Nc1cc(Cl)ccc1C | -16.2% | 0.0146 µM [falling, full curve, poor fit] | –
2 | COc1cc(C(=O)NCCc2cn3ccccc3n2)cc(OC)c1OC | 132% | 14.6 µM [rising, partial curve] | 14.6 µM [rising, partial curve]
3 | Cc1ccc(-n2nc3c(N4CCC(C(=O)NCc5cccc(F)c5)CC4)nnc(C)c3c2C)cc1 | – | 5.17 µM [rising, single point] | 6.51 µM [rising, single point]
4 | COc1ccc(NCCC(O)c2ccc(Cl)cc2)cc1 (configuration not stated) | 16.2% | – | –
5 | CSc1ncccc1C(=O)Nc1ccc2c(c1)OCO2 | -12.9% | 11.6 µM [rising, partial curve] | –
6 | COc1cccc(C2C=C(c3ccc(Br)s3)Nc3ncnn32)c1OC (configuration not stated) | – | 0.103 µM [rising, full curve, poor fit] | 1.03 µM [rising, partial curve]
7 | Cc1cccc2cc(C(c3nnnn3CC3CCCO3)N3CCc4ccccc4C3)c(=O)[nH]c12 (configuration not stated) | 42.4% | 0.461 µM [rising, partial curve] | 6.51 µM [rising, partial curve]
8 | Cc1cccc(NC(=S)NC(=O)/C=C/c2ccccc2)n1 | -36.3% | – | –
9 | CC(=O)Nc1cc(C(=O)N2CCCC2)ccc1Sc1ccc(C)cc1 | -1.05% | – | –
10 | CCN1CCc2c(sc(NC(=O)c3ccc(S(=O)(=O)N4CCCCCC4)cc3)c2C(=O)NC)C1 | -45.8% | 2.91 µM [falling, full curve] | 3.26 µM [falling, full curve]
11 | C/C(=N\NC(=O)c1sccc1C)c1cccnc1 | -39.6% | – | 0.00517 µM [falling, full curve, poor fit]
12 | CCc1noc(C)c1C(=O)N(CCOC)c1c(N)n(CC(C)C)c(=O)[nH]c1=O | -17.3% | 0.708 µM [rising, full curve, poor fit] | –
13 | CCC1CCCCN1C(=O)CSc1nc(N)cc(=O)[nH]1 (configuration not stated) | -20% | – | –
14 | COc1ccc(NC(=O)CCS(=O)(=O)c2ccc3nc(C)sc3c2)cc1OC | 4.03% | 29.1 µM [rising, single point] | –
15 | COc1ccc(NC(=O)COC(=O)Cn2cnc3ccccc3c2=O)c(OC)c1 | -2.61% | 0.092 µM [rising, full curve, poor fit] | –
16 | C/C(=N\NC(=O)c1cc(-c2ccc(Br)s2)[nH]n1)c1ccncc1 | 10.5% | 6.31 µM [rising, single point] | –
17 | Nc1nc(N)c2sc3nc(C(F)(F)F)cc(C(F)(F)F)c3c2n1 | -34.6% | 32.6 µM [falling, single point] | 32.6 µM [falling, single point]
18 | COc1ccc(N2CC(NS(=O)(=O)c3cccs3)CC2=O)cc1OC (configuration not stated) | -19.7% | – | 0.326 µM [falling, full curve, poor fit]
19 | CC(=O)c1ccc(OCc2cc(=O)n3ccsc3n2)cc1 | 33.4% | 29.1 µM [rising, single point] | –
20 | CCC(=O)N(CC)C1=C(O)c2ccccc2C(=O)C1=O | -44.7% | 18.4 µM [falling, partial curve] | 18.4 µM [falling, single point]

Row | SMILES | cell number change | AC50 [1] | AC50 [2]
21 | COc1cc(CNC(C)C)c(Br)cc1OC1CCCC1 | – | – | 0.13 µM [rising, full curve, poor fit]
22 | CCC1CCCCN1C(=O)COC(=O)CSc1ccc(C(N)=O)cc1[N+](=O)[O-] (configuration not stated) | -6.52% | 0.116 µM [falling, full curve, poor fit] | 0.164 µM [falling, full curve, poor fit]
23 | COC(=O)Cn1nc(-c2ccccc2)c2ccccc2c1=O | 2.45% | 1.03 µM [rising, single point] | –
24 | O=C(Cc1ccccc1)NNS(=O)(=O)c1ccccc1[N+](=O)[O-] | -7.14% | 29.1 µM [rising, single point] | –
25 | CCCCOc1ccc(C(=O)NCC(=O)NC2CC2)cc1 | – | 0.116 µM [rising, full curve, poor fit] | 2.31 µM [rising, partial curve]
26 | Cc1nc2ccc([N+](=O)[O-])cc2c(=O)n1Cc1ccc(F)cc1 | -16.8% | 18.4 µM [falling, partial curve] | –
27 | COc1ccc(-c2nnn(CC(=O)N(CC(=O)NCCC(C)C)Cc3cccs3)n2)cc1OC | -19.8% | – | 0.164 µM [falling, partial curve]
28 | O=[N+]([O-])c1ccc(S(=O)(=O)N/N=C/c2ccc3c(c2)OCO3)cc1 | 16.3% | 29.1 µM [rising, single point] | –
29 | O=C(CSc1nc2ccc(Nc3nc(N4CCOCC4)nc(N4CCOCC4)n3)cc2s1)N1CCOCC1 | 19.9% | – | –
30 | C/C(=N\NC(=O)c1nn(C)cc1Cl)c1ccncc1 | -7.26% | 2.06 µM [rising, partial curve] | –
31 | CCc1ccc(/C=N/NC(=O)c2nnn(-c3nonc3N)c2C(C)C)cc1 | -12.4% | – | 5.17 µM [falling, single point]
32 | O=C(Nc1cccc2ccccc12)N1CCN(c2ccc(F)cc2)CC1 | 18.7% | 8.2 µM [rising, partial curve] | –
33 | CN(C)c1cc(Nc2cccc(O)c2)c([N+](=O)[O-])c2nonc12 | 28.8% | 29.1 µM [rising, single point] | –
34 | COc1cc(-c2ccc3c(=O)c4ccccc4n(C)c3c2)cc(OC)c1OC | -13.5% | 7.31 µM [falling, single point] | –
35 | COCCCNc1nc2nonc2nc1NCCSC | 9.14% | – | –
36 | O=C(COC(=O)c1ccccc1C(=O)c1ccccc1)NCCc1ccc(Cl)cc1Cl | -10.9% | 13 µM [falling, single point] | –
37 | O=C(Nc1ccccc1)c1ccc(-c2ccccc2Cl)o1 | -2.77% | 18.4 µM [rising, partial curve] | –
38 | CCC1CCCCN1CCCNC(=O)CCC(=O)N1CC(C)Oc2ccccc21 (configuration not stated) | – | 4.11 µM [falling, single point] | –
39 | COC(=O)Cn1c(=NC(=O)c2cc(-c3cccs3)nc3ccccc23)sc2cc(S(N)(=O)=O)ccc21 | -0.331% | – | –
40 | CCOC(=O)c1[nH]c(C)c(C(=O)OCC(=O)N2CCc3ccccc32)c1C | – | 0.164 µM [rising, full curve, poor fit] | 2.06 µM [rising, single point]

Full records as entered above:
O=[N+]([O-])c1ccc(S(=O)(=O)N/N=C/c2ccc3c(c2)OCO3)cc1 is entered as cell number change: 16.3%; AC50 [1]: 29.1 µM [rising, single point]
CCc1ccc(/C=N/NC(=O)c2nnn(-c3nonc3N)c2C(C)C)cc1 is entered as cell number change: -12.4%; AC50 [2]: 5.17 µM [falling, single point]
COCCCNc1nc2nonc2nc1NCCSC is entered as cell number change: 9.14%

The list continues:

Row | SMILES | cell number change | AC50 [1] | AC50 [2]
41 | CC1=NC(=O)C(N=Nc2cccc(C(=O)O)c2)N1c1ccccc1 (configuration not stated) | -32.6% | – | 0.13 µM [falling, full curve, poor fit]
42 | Cc1ccc(/C=c2\sc3n(c2=O)CN(c2ccc(Br)cc2)CN=3)o1 | -32.6% | – | 29.1 µM [falling, partial curve, poor fit]
43 | O=C(Nn1c(C2CCCCC2)nc2ccccc2c1=O)c1cc(Cl)ccc1[N+](=O)[O-] | 37.4% | – | 20.6 µM [rising, partial curve, poor fit]
44 | Cc1cccc(N(C(=O)Cn2nnc(-c3ccc(F)cc3)n2)C(C(=O)NC(C)(C)C)c2ccncc2)c1 (configuration not stated) | -13.5% | 32.6 µM [falling, single point] | –
45 | CCOC(=O)C1CCCN(C(=O)COC(=O)C2=COCCO2)C1 (configuration not stated) | 0.971% | 2.06 µM [falling, partial curve] | –
46 | Cc1[nH]c2ccccc2c1C1=CN2CCS(=O)(=O)N=C2S1 | – | 0.146 µM [rising, single point] | 6.51 µM [rising, single point]
47 | COc1cccc(-c2c(C(=O)N/N=C/c3ccoc3)nnn2-c2nonc2N)c1 | 3.44% | 29.1 µM [falling, single point] | –
48 | Cc1nc(NCc2cccnc2)c2c3c(sc2n1)CC(C)CC3 (configuration not stated) | – | 0.164 µM [rising, full curve] | 0.651 µM [rising, partial curve]
49 | O=C(NCc1ccccc1F)C1CCN(S(=O)(=O)c2ccccc2)CC1 | 9.01% | – | –
50 | CCC(C(=O)Nc1ccc(C(=O)Nc2ccccc2C(=O)O)cc1)c1ccccc1 (configuration not stated) | -6.23% | 29.1 µM [rising, single point] | –
51 | COc1cccc(NC(=O)CN(C)C(=O)CSCC(=O)Nc2ccc(C)cc2)c1 | -1.24% | 3.26 µM [rising, single point] | 3.66 µM [rising, single point]
52 | Cc1ccc(-c2csc3ncnc(Nc4ccc(C(=O)O)cc4)c23)cc1 | 31.3% | – | 16.4 µM [rising, single point]
53 | COc1ccc(CCNC(=S)NNC(=O)c2c(Br)c(C)nn2C)cc1OC | 6.52% | 0.58 µM [rising, single point] | –
54 | COc1ccc(S(=O)(=O)NCC(=O)NCc2cc(=O)n(C)c(=O)n2C)cc1 | 17.7% | 0.58 µM [falling, single point] | –
55 | Cc1cccc(C(=O)NC(C(=O)Nc2ccccc2N2CCOCC2)C(C)C)c1 (configuration not stated) | 3.73% | – | 1.64 µM [rising, partial curve, poor fit]
56 | CCC(C(=O)NC1CCCC1)N(Cc1ccccc1Cl)C(=O)c1snc(C(N)=O)c1N (configuration not stated) | – | 0.82 µM [falling, full curve] | –
57 | CCCc1ccc2oc(C(=O)N3CCN(C4CCS(=O)(=O)C4)CC3)c(C)c2c1 (configuration not stated) | -8.78% | 0.82 µM [rising, full curve] | –
58 | O=C(/C=C/c1cccs1)c1cc(Br)ccc1OC(=O)N1CCOCC1 | 0.653% | 25.9 µM [falling, single point] | –
